According to the supplement of paper PMC10849652:
This is one part of the list.

By UniProt entry, the sequences of proteins in these tests, tags left out. Where a name states a change or a piece, a line headed by the entry shows the natural chain unless it says otherwise.
UniProt Q712K3: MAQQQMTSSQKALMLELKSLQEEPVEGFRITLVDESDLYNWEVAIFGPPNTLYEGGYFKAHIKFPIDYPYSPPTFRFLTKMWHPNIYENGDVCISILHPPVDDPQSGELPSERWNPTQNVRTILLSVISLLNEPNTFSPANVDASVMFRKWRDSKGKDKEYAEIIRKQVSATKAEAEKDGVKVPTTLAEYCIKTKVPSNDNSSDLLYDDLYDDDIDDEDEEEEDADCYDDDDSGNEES
UniProt P68036, whole entry, looked up: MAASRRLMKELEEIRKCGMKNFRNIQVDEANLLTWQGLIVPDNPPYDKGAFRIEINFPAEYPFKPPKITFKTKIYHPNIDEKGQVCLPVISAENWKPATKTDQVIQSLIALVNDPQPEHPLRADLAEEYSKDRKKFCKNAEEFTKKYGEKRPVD
UniProt Q96J42: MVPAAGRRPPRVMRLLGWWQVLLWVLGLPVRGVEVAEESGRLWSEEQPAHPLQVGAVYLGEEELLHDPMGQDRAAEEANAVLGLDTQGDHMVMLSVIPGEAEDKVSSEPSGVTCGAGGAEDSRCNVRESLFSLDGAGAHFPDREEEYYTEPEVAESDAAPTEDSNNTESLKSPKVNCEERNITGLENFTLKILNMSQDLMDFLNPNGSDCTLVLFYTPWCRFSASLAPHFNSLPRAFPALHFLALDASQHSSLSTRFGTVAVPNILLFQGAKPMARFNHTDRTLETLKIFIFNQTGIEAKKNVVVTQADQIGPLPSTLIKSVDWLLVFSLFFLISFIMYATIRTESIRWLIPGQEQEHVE
UniProt Q7Z6J9: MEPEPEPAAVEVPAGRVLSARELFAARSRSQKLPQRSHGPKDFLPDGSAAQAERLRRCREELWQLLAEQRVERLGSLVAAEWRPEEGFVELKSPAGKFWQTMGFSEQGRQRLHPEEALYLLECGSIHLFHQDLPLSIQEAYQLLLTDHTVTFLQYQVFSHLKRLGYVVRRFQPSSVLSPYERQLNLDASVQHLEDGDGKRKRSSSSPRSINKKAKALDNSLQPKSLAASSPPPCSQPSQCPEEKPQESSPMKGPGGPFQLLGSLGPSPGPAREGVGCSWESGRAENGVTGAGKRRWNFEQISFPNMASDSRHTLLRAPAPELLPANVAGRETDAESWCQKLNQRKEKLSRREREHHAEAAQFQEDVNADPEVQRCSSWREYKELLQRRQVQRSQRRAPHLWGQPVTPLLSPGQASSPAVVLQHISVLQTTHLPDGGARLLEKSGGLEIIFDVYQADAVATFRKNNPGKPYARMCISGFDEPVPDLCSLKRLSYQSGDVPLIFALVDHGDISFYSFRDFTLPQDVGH
UniProt P62253: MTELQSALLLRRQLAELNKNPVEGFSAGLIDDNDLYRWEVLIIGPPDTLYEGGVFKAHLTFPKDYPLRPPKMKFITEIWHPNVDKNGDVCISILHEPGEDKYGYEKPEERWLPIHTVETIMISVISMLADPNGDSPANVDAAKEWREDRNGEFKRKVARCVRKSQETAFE
UniProt Q8NBS9: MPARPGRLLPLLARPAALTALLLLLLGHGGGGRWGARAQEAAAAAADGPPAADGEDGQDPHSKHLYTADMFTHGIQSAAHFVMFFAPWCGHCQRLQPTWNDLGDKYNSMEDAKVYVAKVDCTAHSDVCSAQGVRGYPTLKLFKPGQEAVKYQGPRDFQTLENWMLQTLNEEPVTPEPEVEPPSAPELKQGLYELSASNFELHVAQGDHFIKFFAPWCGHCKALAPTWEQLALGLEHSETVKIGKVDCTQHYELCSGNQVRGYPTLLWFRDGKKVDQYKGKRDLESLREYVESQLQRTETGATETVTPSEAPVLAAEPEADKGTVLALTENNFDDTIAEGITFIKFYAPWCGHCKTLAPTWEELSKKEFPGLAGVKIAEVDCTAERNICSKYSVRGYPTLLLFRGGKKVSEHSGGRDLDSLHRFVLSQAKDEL
UniProt P49459, whole entry, looked up: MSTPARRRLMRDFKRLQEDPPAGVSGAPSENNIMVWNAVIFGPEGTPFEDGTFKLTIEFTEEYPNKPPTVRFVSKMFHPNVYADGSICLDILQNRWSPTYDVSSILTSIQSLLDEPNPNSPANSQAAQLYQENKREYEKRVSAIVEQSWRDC
UniProt Q9NUQ3: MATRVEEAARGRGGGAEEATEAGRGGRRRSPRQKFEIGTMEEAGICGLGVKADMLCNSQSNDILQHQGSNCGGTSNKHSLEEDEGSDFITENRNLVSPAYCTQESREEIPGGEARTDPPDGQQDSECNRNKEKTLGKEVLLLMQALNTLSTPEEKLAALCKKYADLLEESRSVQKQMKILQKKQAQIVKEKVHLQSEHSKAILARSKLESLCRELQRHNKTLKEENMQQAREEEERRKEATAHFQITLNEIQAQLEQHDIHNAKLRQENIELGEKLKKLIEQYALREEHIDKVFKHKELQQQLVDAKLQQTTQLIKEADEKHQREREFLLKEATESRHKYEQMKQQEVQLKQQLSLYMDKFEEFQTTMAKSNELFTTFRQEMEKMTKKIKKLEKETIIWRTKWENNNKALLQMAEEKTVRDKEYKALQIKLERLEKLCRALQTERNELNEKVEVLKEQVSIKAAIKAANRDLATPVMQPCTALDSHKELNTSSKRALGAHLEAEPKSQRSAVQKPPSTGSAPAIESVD
UniProt P61077: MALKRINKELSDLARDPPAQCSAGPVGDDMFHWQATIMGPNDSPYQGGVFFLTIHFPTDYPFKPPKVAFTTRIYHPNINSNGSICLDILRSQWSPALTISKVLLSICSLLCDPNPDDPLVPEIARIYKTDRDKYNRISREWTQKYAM
UniProt Q8NG68: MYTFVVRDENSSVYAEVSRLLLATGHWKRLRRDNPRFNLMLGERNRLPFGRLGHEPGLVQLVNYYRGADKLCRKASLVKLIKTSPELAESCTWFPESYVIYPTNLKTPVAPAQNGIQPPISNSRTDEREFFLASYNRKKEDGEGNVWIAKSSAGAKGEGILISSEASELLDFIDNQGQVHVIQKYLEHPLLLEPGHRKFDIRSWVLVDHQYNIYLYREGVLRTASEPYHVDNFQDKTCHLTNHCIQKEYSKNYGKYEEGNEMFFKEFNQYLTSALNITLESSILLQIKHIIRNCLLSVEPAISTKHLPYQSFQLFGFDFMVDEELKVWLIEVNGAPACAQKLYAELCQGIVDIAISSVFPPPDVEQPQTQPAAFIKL
UniProt P61086: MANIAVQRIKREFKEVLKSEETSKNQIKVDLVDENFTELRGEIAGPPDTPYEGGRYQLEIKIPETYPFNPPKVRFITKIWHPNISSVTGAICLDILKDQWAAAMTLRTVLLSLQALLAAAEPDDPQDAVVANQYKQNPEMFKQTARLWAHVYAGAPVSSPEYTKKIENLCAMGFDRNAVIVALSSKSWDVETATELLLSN
UniProt Q8NG11: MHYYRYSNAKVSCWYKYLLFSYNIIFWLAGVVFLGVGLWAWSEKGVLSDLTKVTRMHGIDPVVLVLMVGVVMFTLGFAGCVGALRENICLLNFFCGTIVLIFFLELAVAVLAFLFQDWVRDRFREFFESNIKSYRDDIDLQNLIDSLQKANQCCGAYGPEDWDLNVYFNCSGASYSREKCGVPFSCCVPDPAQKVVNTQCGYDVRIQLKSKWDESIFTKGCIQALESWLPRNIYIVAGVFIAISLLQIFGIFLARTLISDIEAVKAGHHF
UniProt Q13454: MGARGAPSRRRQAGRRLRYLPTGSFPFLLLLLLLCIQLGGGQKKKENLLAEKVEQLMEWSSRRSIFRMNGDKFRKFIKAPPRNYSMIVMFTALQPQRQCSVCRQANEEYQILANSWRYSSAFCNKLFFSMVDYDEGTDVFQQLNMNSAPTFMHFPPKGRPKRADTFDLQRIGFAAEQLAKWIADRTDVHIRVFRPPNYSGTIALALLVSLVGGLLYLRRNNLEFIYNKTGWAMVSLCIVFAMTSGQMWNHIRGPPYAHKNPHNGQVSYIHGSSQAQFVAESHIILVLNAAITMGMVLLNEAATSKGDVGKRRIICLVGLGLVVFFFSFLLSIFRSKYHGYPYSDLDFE
UniProt Q5T6F2: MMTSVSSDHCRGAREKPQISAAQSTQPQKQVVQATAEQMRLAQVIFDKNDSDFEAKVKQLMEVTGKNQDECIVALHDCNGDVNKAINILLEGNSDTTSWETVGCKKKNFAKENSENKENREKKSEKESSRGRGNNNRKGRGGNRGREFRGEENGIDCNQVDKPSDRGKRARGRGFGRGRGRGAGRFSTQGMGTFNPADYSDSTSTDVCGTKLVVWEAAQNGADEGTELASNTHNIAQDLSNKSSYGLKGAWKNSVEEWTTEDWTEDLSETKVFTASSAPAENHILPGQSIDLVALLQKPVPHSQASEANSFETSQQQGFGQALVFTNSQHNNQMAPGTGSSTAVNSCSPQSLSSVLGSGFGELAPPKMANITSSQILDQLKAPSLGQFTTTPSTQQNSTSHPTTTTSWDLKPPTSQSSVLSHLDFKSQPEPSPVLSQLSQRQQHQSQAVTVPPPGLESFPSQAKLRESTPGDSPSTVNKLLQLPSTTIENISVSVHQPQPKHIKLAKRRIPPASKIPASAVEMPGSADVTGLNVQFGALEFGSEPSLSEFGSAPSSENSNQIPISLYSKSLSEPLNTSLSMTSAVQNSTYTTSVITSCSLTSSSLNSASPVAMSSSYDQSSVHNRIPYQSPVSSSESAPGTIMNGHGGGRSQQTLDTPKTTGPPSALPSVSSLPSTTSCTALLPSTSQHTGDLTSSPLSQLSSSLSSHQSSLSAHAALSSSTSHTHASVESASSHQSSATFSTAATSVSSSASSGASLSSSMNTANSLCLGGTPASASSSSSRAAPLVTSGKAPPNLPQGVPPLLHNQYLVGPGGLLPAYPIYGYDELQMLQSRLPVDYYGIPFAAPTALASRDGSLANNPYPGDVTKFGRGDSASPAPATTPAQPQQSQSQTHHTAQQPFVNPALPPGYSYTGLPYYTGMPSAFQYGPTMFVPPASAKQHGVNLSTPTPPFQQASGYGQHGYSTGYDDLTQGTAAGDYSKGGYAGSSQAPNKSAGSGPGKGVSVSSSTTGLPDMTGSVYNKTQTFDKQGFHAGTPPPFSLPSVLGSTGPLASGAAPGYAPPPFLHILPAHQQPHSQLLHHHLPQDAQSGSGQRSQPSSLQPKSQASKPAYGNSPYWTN
UniProt Q9NPD8: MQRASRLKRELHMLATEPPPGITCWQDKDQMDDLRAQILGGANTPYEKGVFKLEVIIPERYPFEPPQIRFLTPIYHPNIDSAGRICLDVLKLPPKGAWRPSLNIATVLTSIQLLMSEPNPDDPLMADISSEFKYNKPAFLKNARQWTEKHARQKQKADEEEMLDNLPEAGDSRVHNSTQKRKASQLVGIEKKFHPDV

Legend:
Assay in all cases: log2 fold change, soluble protein after heating vs DMSO (PISA); higher = thermal stabilisation; K562 cells, 10 uM, 30 min; active = over 0.2 and 3.5 SD of the protein, either way, in both replicates (recomputed)
[1] = compound: CC1=C(C=C(C=C1)NC(=O)C2=CC(=CC=C2)C(C)(C)C#N)NC3=CC4=C(C=C3)N=CN(C4=O)C
In short: (§1)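 Quantification of soluble protein used TMTpro 16plex LC-MS/MS, with channel sums equalised. Samples were the supernatant after 21,000xg for 90 min of pooled aliquots from K562 cells (2×10^6 cells/mL) treated with 10 μM compound for 30 min, heated for 3 min over 48°C-58°C, and extracted in PBS with 0.5% NP-40 at 4°C. Values, from duplicates, describe thermal stability against control samples on a log2 fold-change scale.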

[2] = compound: CC1=C(C=C(C=C1)NC(=O)C2=CC(=CC=C2)N(C)C)NC(=O)C3=CC=C(C=C3)O
In short: as §1

[3] = compound: CC1=CC=C(C=C1)SC2=C3C=C(SC3=CN=C2)C(=O)N
In short: as §1

[4] = compound: CC1=NC(=CC=C1)C2=C(N=C(N2)C(C)(C)C)C3=CC4=NC=CN=C4C=C3
In short: as §1

Nexturastat A = compound: CCCCN(Cc1ccc(C(=O)NO)cc1)C(=O)Nc1ccccc1 [Nexturastat A]
In short: as §1

vemurafenib = compound: CCCS(=O)(=O)Nc1ccc(F)c(C(=O)c2c[nH]c3ncc(-c4ccc(Cl)cc4)cc23)c1F [vemurafenib]
In short: as §1

[5] = compound: CCCS(=O)(=O)Nc1ccc(F)c(C(=O)c2c[nH]c3ncc(Cl)cc23)c1F
In short: as §1

[6] = compound: CCCc1cc(C)[nH]c(=O)c1CNC(=O)c1cc(-c2ccnc(N3CCN(C)CC3)c2)cc2c1cnn2C(C)C
In short: as §1

givinostat = compound: CCN(CC)Cc1ccc2cc(COC(=O)Nc3ccc(C(=O)NO)cc3)ccc2c1 [givinostat]
In short: as §1

barasertib = compound: CCN(CCCOc1ccc2c(Nc3cc(CC(=O)Nc4cccc(F)c4)[nH]n3)ncnc2c1)CCOP(=O)(O)O [barasertib]
In short: as §1

[7] = compound: CC[C@@H]1C(=O)N(C)c2cnc(Nc3ccc(C(=O)NC4CCN(C)CC4)cc3OC)nc2N1C1CCCC1
In short: as §1

volasertib = compound: CC[C@@H]1C(=O)N(C)c2cnc(Nc3ccc(C(=O)N[C@H]4CC[C@H](N5CCN(CC6CC6)CC5)CC4)cc3OC)nc2N1C(C)C [volasertib]
In short: as §1

[8] = compound: CC[C@H](C)N1C=C(C2=C(C=C(C=C21)C3=CN=C(C=C3)N4CCNCC4)C(=O)NCC5=C(C=C(NC5=O)C)C)C
In short: as §1

epoxomicin = compound: CC[C@H](C)[C@@H](C(=O)N[C@@H]([C@@H](C)O)C(=O)N[C@@H](CC(C)C)C(=O)[C@]1(CO1)C)NC(=O)[C@H]([C@@H](C)CC)N(C)C(=O)C [epoxomicin]
In short: as §1

[9] = compound: CCn1c(C(=O)N(C2CC2)C2CC2)cc2c3c(ncn3C)c(Nc3cc(C)n(C)n3)nc21
In short: as §1

[10] = compound: CCn1cc(-c2ccnc3[nH]c(-c4cccc(CN(C)C)c4)cc23)c(-c2ccc(NC(=O)N(C)C)cc2)n1
In short: as §1

[11] = compound: CN(C)CC(=O)Nc1ccc2[nH]c(=O)c3ccccc3c2c1
In short: as §1

rosiglitazone = compound: CN(CCOC1=CC=C(C=C1)C[C@H]2C(=O)NC(=O)S2)C3=CC=CC=N3 (racemic) [rosiglitazone]
In short: as §1

[12] = compound: CN1C2=C(C3=C1C(=O)N(N=C3)CC4=CC(=CC=C4)N)SC(=C2)S(=O)C
In short: as §1

[13] = compound: CN1CCC(CNc2ccc3ncc(-c4cccc(OC(F)(F)F)c4)n3n2)CC1
In short: as §1

Measured: log2 fold change

UBE2R2 (UniProt Q712K3)
inactive: [1] -0.007 | [2] -0.026 | [3] 0.063 | [4] 0.041 | Nexturastat A -0.089 | vemurafenib 0.115 | [5] 0.016 | [6] -0.018 | givinostat -0.059 | barasertib 0.067 | [7] -0.037 | volasertib -0.135 | [8] 0.044 | epoxomicin -0.009 | [9] 0.051 | [10] 0.017 | [11] -0.021 | rosiglitazone 0.015 | [12] -0.147 | [13] -0.059

UBE2L3 isoform 3 (UniProt P68036)
inactive: [1] -0.01 | [2] -0.001 | [3] -0.002 | [4] 0.041 | Nexturastat A -0.052 | vemurafenib 0 | [5] -0.001 | [6] 0.024 | givinostat -0.037 | barasertib -0.005 | [7] -0.025 | volasertib 0.145 | [8] 0.007 | epoxomicin 0.04 | [9] 0.026 | [10] 0.01 | [11] -0.03 | rosiglitazone 0.017 | [12] -0.05 | [13] -0.052

TXNDC15 (UniProt Q96J42)
inactive: [1] 0.088 | [2] -0.097 | [3] -0.05 | [4] 0.039 | Nexturastat A -0.073 | vemurafenib -0.01 | [5] -0.094 | [6] -0.204 | givinostat 0.042 | barasertib 0.043 | [7] 0.014 | volasertib 0.063 | [8] -0.097 | epoxomicin 0.143 | [9] 0.033 | [10] 0.083 | [11] 0.11 | rosiglitazone -0.032 | [12] -0.106 | [13] 0.07

TSEN54 (UniProt Q7Z6J9)
inactive: [1] -0.047 | [2] -0.055 | [3] 0.008 | [4] 0.105 | Nexturastat A 0.14 | vemurafenib 0.023 | [5] 0.009 | [6] 0.047 | givinostat 0.057 | barasertib 0.047 | [7] 0.001 | volasertib -0.014 | [8] 0.11 | epoxomicin 0.005 | [9] -0.152 | [10] 0.12 | [11] 0.054 | rosiglitazone 0.039 | [12] -0.178 | [13] -0.149

UBE2G1 (UniProt P62253)
inactive: [1] -0.024 | [2] 0.045 | [3] 0.04 | [4] 0.003 | Nexturastat A -0.132 | vemurafenib 0.001 | [5] 0.08 | [6] 0.045 | givinostat -0.042 | barasertib 0.033 | [7] -0.032 | volasertib -0.066 | [8] 0.041 | epoxomicin -0.066 | [9] 0.033 | [10] 0.02 | [11] -0.002 | rosiglitazone 0.089 | [12] -0.076 | [13] -0.047

TXNDC5 (UniProt Q8NBS9)
inactive: [1] 0.015 | [2] 0.013 | [3] -0.021 | [4] 0.017 | Nexturastat A -0.014 | vemurafenib -0.001 | [5] -0.015 | [6] 0.022 | givinostat -0.044 | barasertib 0.005 | [7] -0.023 | volasertib 0.008 | [8] 0.006 | epoxomicin 0.105 | [9] 0.028 | [10] -0.002 | [11] 0.009 | rosiglitazone 0 | [12] -0.037 | [13] 0.035

UBE2A (UniProt P49459)
inactive: [1] 0.012 | [2] 0 | [3] 0.031 | [4] -0.014 | Nexturastat A -0.03 | vemurafenib 0.061 | [5] 0.101 | [6] 0.042 | givinostat -0.007 | barasertib 0.003 | [7] -0.107 | volasertib -0.074 | [8] 0.1 | epoxomicin 0.156 | [9] -0.033 | [10] -0.075 | [11] 0.046 | rosiglitazone 0.005 | [12] -0.181 | [13] -0.063

TXLNG (UniProt Q9NUQ3)
inactive: [1] 0.117 | [2] 0.001 | [3] 0.003 | [4] 0.013 | Nexturastat A -0.041 | vemurafenib -0.008 | [5] 0.004 | [6] -0.036 | givinostat -0.009 | barasertib 0.03 | [7] 0.02 | volasertib 0.022 | [8] 0.039 | epoxomicin 0.017 | [9] 0.006 | [10] -0.078 | [11] -0.003 | rosiglitazone 0.027 | [12] -0.054 | [13] 0.077

TTC27 (UniProt Q6P3X3)
inactive: [1] 0.001 | [2] -0.017 | [3] 0.05 | [4] -0.026 | Nexturastat A 0.237 | vemurafenib -0.041 | [5] 0.068 | [6] 0.024 | givinostat 0.042 | barasertib 0.069 | [7] -0.098 | volasertib -0.316 | [8] 0.03 | epoxomicin -0.046 | [9] -0.016 | [10] 0.054 | [11] 0.086 | rosiglitazone -0.014 | [12] 0.308 | [13] -0.169

UBE2D3 isoform 3 (UniProt P61077)
inactive: [1] -0.016 | [2] -0.021 | [3] 0.007 | [4] -0.047 | Nexturastat A 0.046 | vemurafenib 0.027 | [5] 0.045 | [6] -0.007 | givinostat -0.007 | barasertib -0.002 | [7] -0.034 | volasertib -0.049 | [8] 0.007 | epoxomicin 0.012 | [9] 0.028 | [10] 0 | [11] 0.025 | rosiglitazone 0.019 | [12] -0.057 | [13] -0.087

Taken from above (two entries):
UBE2A (UniProt P49459)
inactive: [1] 0.012 | [2] 0 | [3] 0.031 | [4] -0.014 | Nexturastat A -0.03 | vemurafenib 0.061 | [5] 0.101 | [6] 0.042 | givinostat -0.007 | barasertib 0.003 | [7] -0.107 | volasertib -0.074 | [8] 0.1 | epoxomicin 0.156 | [9] -0.033 | [10] -0.075 | [11] 0.046 | rosiglitazone 0.005 | [12] -0.181 | [13] -0.063

TXLNG (UniProt Q9NUQ3)
inactive: [1] 0.117 | [2] 0.001 | [3] 0.003 | [4] 0.013 | Nexturastat A -0.041 | vemurafenib -0.008 | [5] 0.004 | [6] -0.036 | givinostat -0.009 | barasertib 0.03 | [7] 0.02 | volasertib 0.022 | [8] 0.039 | epoxomicin 0.017 | [9] 0.006 | [10] -0.078 | [11] -0.003 | rosiglitazone 0.027 | [12] -0.054 | [13] 0.077

Carrying on.

TTL (UniProt Q8NG68)
inactive: [1] -0.058 | [2] 0.043 | [3] 0.01 | [4] 0 | Nexturastat A -0.053 | vemurafenib 0.023 | [5] 0.025 | [6] -0.093 | givinostat -0.034 | barasertib 0.01 | [7] -0.035 | volasertib 0.054 | [8] -0.01 | epoxomicin -0.012 | [9] -0.005 | [10] -0.118 | [11] 0.013 | rosiglitazone -0.025 | [12] -0.041 | [13] -0.067

UBE2K (UniProt P61086)
inactive: [1] 0.017 | [2] -0.02 | [3] 0.063 | [4] 0.16 | Nexturastat A -0.032 | vemurafenib -0.02 | [5] 0.09 | [6] 0.014 | givinostat -0.021 | barasertib -0.005 | [7] -0.033 | volasertib -0.026 | [8] 0.018 | epoxomicin 0.069 | [9] -0.003 | [10] -0.011 | [11] -0.034 | rosiglitazone -0.027 | [12] -0.075 | [13] -0.081

TSPAN14 (UniProt Q8NG11)
inactive: [1] 0.038 | [2] -0.003 | [3] 0.037 | [4] -0.011 | Nexturastat A -0.072 | vemurafenib -0.023 | [5] -0.003 | [6] -0.103 | givinostat -0.023 | barasertib -0.026 | [7] 0.17 | volasertib 0.047 | [8] -0.12 | epoxomicin 0.008 | [9] 0.022 | [10] 0.014 | [11] -0.006 | rosiglitazone 0.067 | [12] -0.063 | [13] 0.033

TUSC3 isoform 2 (UniProt Q13454)
inactive: [1] -0.04 | [2] 0.05 | [3] -0.026 | [4] 0.013 | Nexturastat A 0.137 | vemurafenib 0.009 | [5] -0.005 | [6] 0.032 | givinostat 0.042 | barasertib -0.015 | [7] 0.043 | volasertib 0.01 | [8] -0.002 | epoxomicin 0.003 | [9] 0.036 | [10] 0.079 | [11] -0.021 | rosiglitazone -0.009 | [12] 0.115 | [13] 0.023

UBAP2 (UniProt Q5T6F2)
inactive: [1] -0.046 | [2] 0.009 | [3] 0.01 | [4] 0.013 | Nexturastat A -0.045 | vemurafenib -0.033 | [5] -0.014 | [6] -0.027 | givinostat 0.001 | barasertib 0.001 | [7] 0 | volasertib 0.016 | [8] -0.033 | epoxomicin 0.021 | [9] 0.009 | [10] 0.028 | [11] 0.001 | rosiglitazone -0.005 | [12] -0.039 | [13] -0.021

UBE2T (UniProt Q9NPD8)
inactive: [1] -0.015 | [2] -0.064 | [3] 0.075 | [4] 0 | Nexturastat A 0 | vemurafenib -0.016 | [5] 0.022 | [6] 0.032 | givinostat 0.089 | barasertib 0.068 | [7] 0.002 | volasertib -0.098 | [8] 0.057 | epoxomicin 0 | [9] -0.06 | [10] -0.043 | [11] 0.016 | rosiglitazone 0.062 | [12] -0.042 | [13] -0.033
